Values quoted from earlier work in patent US20230089950A1, “LITHIUM ION COMPOSITION AND APPLICATION THEREOF” (QINGDAO DEBAO SHANGJIA HOUSEHOLD PRODUCTS CO., LTD, priority 2019, published 2023).
At least one structure is not confirmed: it was looked up by name or label, or the drawing left a doubt.

System: dementia

Structure (SMILES): [Li] [lithium]
- reduction of incidence of dementia (regions with lithium levels above 15 micrograms per liter compared to less than 5 micrograms per liter of tap water): 17%
- increase of incidence of dementia (regions with lithium levels between 5.1 and 10 micrograms per liter compared to less than 5 micrograms per liter of tap water): 22%
